In article doi:10.1101/2021.10.20.465084:
These are yes or no findings as the source states them, for the method shown. Some binding calls cover weakened binding; strength is not graded here.

Target: preformed IAPP fibrils (human)
Assay: negative-stain electron microscopy

binding: binds
B1: Prefoldin from Pyrococcus horikoshii (PhPFD-α2β4 heterohexamer, 86.4 kDa) (complex, UniProt O58263 1-148; O58268 1-117)
chain 1: MAQNNKELEKLAYEYQVLQAQAQILAQNLELLNLAKAEVQTVRETLENLKKIEEEKPEILVPIGAGSFLKGVIVDKNNAIVSVGSGYAVERSIDEAIGFLEKRLKEYDEAIKKTQGALAELEKRIGEVARKAQEVQQKQSMTSFKVKK
chain 2: MQNIPPQVQAMLGQLDTYQQQLQLVIQQKQKVQADLNEAKKALEEIETLPDDAQIYKTVGTLIVKTTKEKAVQELKEKIETLEVRLNALNRQEQKINEKVKELTQKIQAALRPPTAG
